Data as given in PubChem BioAssay AID1159578 (Peter MacCallum Cancer Centre, 2015).
Test: 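Knock-downs that alter how fast lymphatic endothelial cells migrate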 (primary screen). System: human lymphatic endothelial cells. Reagent: siRNA pool against human genes, 40 nM. Duration: 48 h after transfection. Detection: 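Cells stained with dye and imaged after a scratch; covered wound area and nuclei counted, duplicates averaged, migration set against mock wells and turned into a robust z-score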. Direction: migration robust z-score: higher = faster migration into the scratch; nuclei per well: higher = more cells in the well. Rule for the call: 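Pools averaging fewer than 3300 nuclei are never called; remaining pools count as changed when migration robust z lies outside -2 to 2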. Meaning of the calls: active = migration changed; inactive = no migration change, or too few cells.
Shown is one part, drawn at random, of about 18,000 deposited reagents. In the full data, about 1,030 (5.7%) were called active. 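Inactive calls also include pools with fewer than 3300 nuclei, whose migration was not assessed.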 The raw values are shown without normalisation. A number with no mark means an inactive call. Not all columns of the deposit are shown.

The first 2 records, ahead of the listing:
MARS1 (methionyl-tRNA synthetase 1) [SID255350878] → migration robust z-score = -2.21 (active); migration class with cell-count check = migration z below -2; enough cells; nuclei per well, duplicate mean = 4832
ARHGDIA (Rho GDP dissociation inhibitor alpha) [SID255348394] → migration robust z-score = 0.24; migration class with cell-count check = migration z between -2 and 2; enough cells; nuclei per well, duplicate mean = 6006

Results, repeating the preview:
MARS1 (methionyl-tRNA synthetase 1) [SID255350878] → migration robust z-score = -2.21 (active); migration class with cell-count check = migration z below -2; enough cells; nuclei per well, duplicate mean = 4832
ARHGDIA (Rho GDP dissociation inhibitor alpha) [SID255348394] → migration robust z-score = 0.24; migration class with cell-count check = migration z between -2 and 2; enough cells; nuclei per well, duplicate mean = 6006
PIGZ [SID255360722] → migration robust z-score = -0.04; migration class with cell-count check = migration z between -2 and 2; enough cells; nuclei per well, duplicate mean = 5427
PRR23B (proline rich 23B) [SID255365545] → migration robust z-score = -0.08; migration class with cell-count check = migration z between -2 and 2; enough cells; nuclei per well, duplicate mean = 5839
NCF1 (neutrophil cytosolic factor 1) [SID255366143] → migration robust z-score = -0.59; migration class with cell-count check = migration z between -2 and 2; enough cells; nuclei per well, duplicate mean = 7112
OR51V1 (olfactory receptor family 51 subfamily V member 1) [SID255364634] → migration robust z-score = 0.74; migration class with cell-count check = migration z between -2 and 2; enough cells; nuclei per well, duplicate mean = 5141
ARMC12 (armadillo repeat containing 12) [SID255364304] → migration robust z-score = -0.2; migration class with cell-count check = migration z between -2 and 2; enough cells; nuclei per well, duplicate mean = 6198
FAM186B (family with sequence similarity 186 member B) [SID255361178] → migration robust z-score = 0.79; migration class with cell-count check = migration z between -2 and 2; enough cells; nuclei per well, duplicate mean = 4374
UGGT2 (UDP-glucose glycoprotein glucosyltransferase 2) [SID255358836] → migration robust z-score = 1.02; migration class with cell-count check = migration z between -2 and 2; enough cells; nuclei per well, duplicate mean = 6262
CLDN7 (claudin 7) [SID255349062] → migration robust z-score = -0.53; migration class with cell-count check = migration z between -2 and 2; enough cells; nuclei per well, duplicate mean = 6758
GAPVD1 (GTPase activating protein and VPS9 domains 1) [SID255356680] → migration robust z-score = 0.32; migration class with cell-count check = migration z between -2 and 2; enough cells; nuclei per well, duplicate mean = 7042
BEX3 (brain expressed X-linked 3) [SID255356878] → migration robust z-score = 1.21; migration class with cell-count check = migration z between -2 and 2; enough cells; nuclei per well, duplicate mean = 5896
THAP4 (THAP domain containing 4) [SID255357455] → migration robust z-score = -0.18; migration class with cell-count check = migration z between -2 and 2; enough cells; nuclei per well, duplicate mean = 5322
AMIGO1 (adhesion molecule with Ig like domain 1) [SID255359398] → migration robust z-score = 0.15; migration class with cell-count check = migration z between -2 and 2; enough cells; nuclei per well, duplicate mean = 6226
